Reference: article doi:10.1101/594168
Weaker means in comparison with the reference protein, sequence or condition of that experiment. For some assays here: Protein sequences can lack the tags named with them. For some assays here: The exact form of at least one protein or probe is not confirmed.

What was measured:
[1] = tested on: Lsm1-7 complex + Pat1 317-754; experiment: fluorescence polarization; conditions: unable to stimulate RNA binding, isotherm identical to L457A/E461K complex
[2] = target: T1, PatMC (Schizosaccharomyces pombe) (UniProt O42958); experiment: fluorescence polarization; conditions: PatMC alone, bound weakly
T1 sequence (looked up, limits assumed): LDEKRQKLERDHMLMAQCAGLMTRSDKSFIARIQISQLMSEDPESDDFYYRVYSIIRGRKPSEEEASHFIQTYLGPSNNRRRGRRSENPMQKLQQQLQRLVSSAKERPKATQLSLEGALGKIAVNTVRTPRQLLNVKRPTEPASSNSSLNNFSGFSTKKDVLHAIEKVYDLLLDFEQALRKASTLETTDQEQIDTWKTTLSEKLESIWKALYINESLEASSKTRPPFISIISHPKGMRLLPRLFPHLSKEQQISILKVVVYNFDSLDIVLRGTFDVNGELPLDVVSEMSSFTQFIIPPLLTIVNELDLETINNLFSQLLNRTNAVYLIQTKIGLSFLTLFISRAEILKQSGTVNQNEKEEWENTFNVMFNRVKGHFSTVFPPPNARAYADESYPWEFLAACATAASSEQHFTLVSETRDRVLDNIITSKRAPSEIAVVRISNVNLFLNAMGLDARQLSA

AAAAAAAAAAAAAAA [oligoA rA15]
binding result [1]: binds more weakly
binding result [2]: binds more weakly
